{
  "source": "patent US20250019401A1",
  "about": "(Xiamen University, priority 2023, published 2025)",
  "assay": "peptide made by a vendor",
  "details": "whole synthesis, HPLC",
  "note": "Some peptides are written in HELM: one residue between dots, names in brackets for other building blocks, links after the first $.",
  "data": [
    {"substance": "PEPTIDE1{L.I.G.L.Y.L.L.H.R.R.R.R.R.H}$$$$V2.0", "values": [
      {"measurement": "purity (crude or final not stated)", "result": "no less than 95%"}
    ]}
  ]
}
